PMC7157757
These are yes or no findings as the source states them, for the method shown. Some results given as binding are weak or reduced against the parent protein; the word gives no strength.

Target: Recombinant human (Myc-DDK-tagged) AKR2 (human) (UniProt Q53H80)
Assay: pull-down; recombinant interacting protein incubated with Myc-DDK-tagged AKR2 for 2 h, then 30 min with c-Myc magnetic beads, shaking, room temperature; eluted with Laemmli sample buffer; Western blot with antibodies specific for the interacting protein; both purified

| Binder | binding |
| --- | --- |
| estrogen-related receptor gamma, recombinant (protein, UniProt P62508 1-458) MDSVELCLPESFSLHYEEELLCRMSNKDRHIDSSCSSFIKTEPSSPASLTDSVNHHSPGGSSDASGSYSSTMNGHQNGLDSPPLYPSAPILGGSGPVRKLYDDCSSTIVEDPQTKCEYMLNSMPKRLCLVCGDIASGYHYGVASCEACKAFFKRTIQGNIEYSCPATNECEITKRRRKSCQACRFMKCLKVGMLKEGVRLDRVRGGRQKYKRRIDAENSPYLNPQLVQPAKKPYNKIVSHLLVAEPEKIYAMPDPTVPDSDIKALTTLCDLADRELVVIIGWAKHIPGFSTLSLADQMSLLQSAWMEILILGVVYRSLSFEDELVYADDYIMDEDQSKLAGLLDLNNAILQLVKKYKSMKLEKEEFVTLKAIALANSDSMHIEDVEAVQKLQDVLHEALQDYEAGQHMEDPRRAGKMLMTLPLLRQTSTKAVQHFYNIKLEGKVPMHKLFLEMLEAKV | binds |
| RING finger protein 10, recombinant (protein, UniProt Q8N5U6 1-811) MPLSSPNAAATASDMDKNSGSNSSSASSGSSKGQQPPRSASAGPAGESKPKSDGKNSSGSKRYNRKRELSYPKNESFNNQSRRSSSQKSKTFNKMPPQRGGGSSKLFSSSFNGGRRDEVAEAQRAEFSPAQFSGPKKINLNHLLNFTFEPRGQTGHFEGSGHGSWGKRNKWGHKPFNKELFLQANCQFVVSEDQDYTAHFADPDTLVNWDFVEQVRICSHEVPSCPICLYPPTAAKITRCGHIFCWACILHYLSLSEKTWSKCPICYSSVHKKDLKSVVATESHQYVVGDTITMQLMKREKGVLVALPKSKWMNVDHPIHLGDEQHSQYSKLLLASKEQVLHRVVLEEKVALEQQLAEEKHTPESCFIEAAIQELKTREEALSGLAGSRREVTGVVAALEQLVLMAPLAKESVFQPRKGVLEYLSAFDEETTEVCSLDTPSRPLALPLVEEEEAVSEPEPEGLPEACDDLELADDNLKEGTICTESSQQEPITKSGFTRLSSSPCYYFYQAEDGQHMFLHPVNVRCLVREYGSLERSPEKISATVVEIAGYSMSEDVRQRHRYLSHLPLTCEFSICELALQPPVVSKETLEMFSDDIEKRKRQRQKKAREERRRERRIEIEENKKQGKYPEVHIPLENLQQFPAFNSYTCSSDSALGPTSTEGHGALSISPLSRSPGSHADFLLTPLSPTASQGSPSFCVGSLEEDSPFPSFAQMLRVGKAKADVWPKTAPKKDENSLVPPAPVDSDGESDNSDRVPVPSFQNSFSQAIEAAFMKLDTPATSDPLSEEKGGKKRKKQKQKLLFSTSVVHTK | binds |

Results, then the binder that gave them:

| binding | Binder |
| --- | --- |
| binds | mediator of RNA polymerase II transcription subunit 16, recombinant (protein, UniProt Q9Y2X0 1-877) MCDLRRPAAGGMMDLAYVCEWEKWSKSTHCPSVPLACAWSCRNLIAFTMDLRSDDQDLTRMIHILDTEHPWDLHSIPSEHHEAITCLEWDQSGSRLLSADADGQIKCWSMADHLANSWESSVGSLVEGDPIVALSWLHNGVKLALHVEKSGASSFGEKFSRVKFSPSLTLFGGKPMEGWIAVTVSGLVTVSLLKPSGQVLTSTESLCRLRGRVALADIAFTGGGNIVVATADGSSASPVQFYKVCVSVVSEKCRIDTEILPSLFMRCTTDLNRKDKFPAITHLKFLARDMSEQVLLCASSQTSSIVECWSLRKEGLPVNNIFQQISPVVGDKQPTILKWRILSATNDLDRVSAVALPKLPISLTNTDLKVASDTQFYPGLGLALAFHDGSVHIVHRLSLQTMAVFYSSAAPRPVDEPAMKRPRTAGPAVHLKAMQLSWTSLALVGIDSHGKLSVLRLSPSMGHPLEVGLALRHLLFLLEYCMVTGYDWWDILLHVQPSMVQSLVEKLHEEYTRQTAALQQVLSTRILAMKASLCKLSPCTVTRVCDYHTKLFLIAISSTLKSLLRPHFLNTPDKSPGDRLTEICTKITDVDIDKVMINLKTEEFVLDMNTLQALQQLLQWVGDFVLYLLASLPNQGSLLRPGHSFLRDGTSLGMLRELMVVIRIWGLLKPSCLPVYTATSDTQDSMSLLFRLLTKLWICCRDEGPASEPDEALVDECCLLPSQLLIPSLDWLPASDGLVSRLQPKQPLRLQFGRAPTLPGSAATLQLDGLARAPGQPKIDHLRRLHLGACPTEECKACTRCGCVTMLKSPNRTTAVKQWEQRWIKNCLAVEGRGPDACVTSRASEEAPAFVQLGPQSTHHSPRTPRSLDHLHPEDRP |
| binds | protein Wnt-2, recombinant (protein, UniProt P09544 26-360) SWWYMRATGGSSRVMCDNVPGLVSSQRQLCHRHPDVMRAISQGVAEWTAECQHQFRQHRWNCNTLDRDHSLFGRVLLRSSRESAFVYAISSAGVVFAITRACSQGEVKSCSCDPKKMGSAKDSKGIFDWGGCSDNIDYGIKFARAFVDAKERKGKDARALMNLHNNRAGRKAVKRFLKQECKCHGVSGSCTLRTCWLAMADFRKTGDYLWRKYNGAIQVVMNQDGTGFTVANERFKKPTKNDLVYFENSPDYCIRDREAGSLGTAGRVCNLTSRGMDSCEVMCCGRGYDTSHVTRMTKCGCKFHWCCAVRCQDCLEALDVHTCKAPKNADWTTAT |
